# Values from PubChem BioAssay AID504808 (Drosophila RNAi Screening Center, 2011)
# Screen: 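Chromatin factors that keep E2F targets switched off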 (primary screen)
# System: Drosophila S2 cells
# Knock-down reagent: long dsRNA against Drosophila genes
# Read-out: 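Dual luciferase plate measurements; E2F-specific signal taken as firefly over Renilla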
# Reading the numbers: E2F firefly: higher = more E2F reporter activity; Renilla normaliser: higher = more normaliser reporter signal
# Hit rule: 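a knock-down counted as active when the firefly/Renilla E2F signal rose above 50%, a threshold chosen arbitrarily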
# The screen tested about 21,000 reagents; below is an unselected part of those that have a named target and a result. Over the whole deposit, 18 (0.084%) were called active. 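Raw counts without plate normalisation, one of two replicates; the ratio scores behind the calls were not deposited.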 Names joined by + are all predicted targets of the reagent. Reagent sequences are not shown. The record does not give: the amount of reagent, the time to read-out.
predicted target,dsRNA,"E2F firefly, rep 1","Renilla normaliser, rep 1",Call
CG31910 + snoRNA:Me28S-G2743 (retired record),DRSC00946,1.30e5,5908,inactive
cmet,DRSC03511,1.52e5,4646,inactive
hry,DRSC11353,55902,3211,inactive
Kul,DRSC15404,1.13e5,6625,inactive
Drsl4,DRSC08034,1.35e5,3961,inactive
slf,DRSC00583,1.44e5,5273,inactive
Ugt37A3,DRSC15937,1.27e5,5661,inactive
5-HT1B,DRSC05031,1.30e5,4251,inactive
5-HT1B,DRSC05769,74393,4210,inactive
mri,DRSC08259,66731,3419,inactive
PGRP-LB,DRSC14926,70508,3246,inactive
nSMase,DRSC08237,77590,3177,inactive
CG6106,DRSC19971,1.54e5,6816,inactive
DAAM,DRSC18479,51166,2815,inactive
CG14650,DRSC12236,86156,3636,inactive
CG15344 (retired record),DRSC18029,1.08e5,5355,inactive
Rfx,DRSC16820,1.18e5,5225,inactive
CG31516,DRSC11994,85383,4366,inactive
PolD3,DRSC01961,82146,3495,inactive
Obp83ef,DRSC12268,1.29e5,6634,inactive
CG13198,DRSC06323,92981,4298,inactive
lncRNA:CR40629,DRSC20959,89388,2636,inactive
Gnpat,DRSC16960,1.03e5,5445,inactive
CG11436,DRSC17783,1653,844,inactive
COX5BL,DRSC02123,1.58e5,5693,inactive
hog,DRSC19057,90666,3432,inactive
Aps,DRSC10629,1.26e5,7145,inactive
zfh1,DRSC14014,84522,2953,inactive
zfh1,DRSC17098,1525,1060,inactive
CG13698,DRSC10047,76523,3777,inactive
shps,DRSC14614,1.00e5,5597,inactive
CG14182,DRSC10181,1.46e5,6531,inactive

Reprinted from the listing for reference:
predicted target,dsRNA,"E2F firefly, rep 1","Renilla normaliser, rep 1",Call
CG31910 + snoRNA:Me28S-G2743 (retired record),DRSC00946,1.30e5,5908,inactive
cmet,DRSC03511,1.52e5,4646,inactive
hry,DRSC11353,55902,3211,inactive
Kul,DRSC15404,1.13e5,6625,inactive
Drsl4,DRSC08034,1.35e5,3961,inactive

Further entries:
predicted target,dsRNA,"E2F firefly, rep 1","Renilla normaliser, rep 1",Call
STUB1,DRSC03282,1.65e5,5185,inactive
CG5347,DRSC19942,1.64e5,6356,inactive
Gnmt,DRSC15987,1.46e5,6320,inactive
cnk,DRSC07595,1.51e5,5050,inactive
CG1161,DRSC12180,61964,3977,inactive
Spn55B,DRSC07694,1.50e5,4922,inactive
piwi,DRSC03592,83170,3230,inactive
CG13427,DRSC06389,1.39e5,4733,inactive
BuGZ,DRSC02642,68225,3522,inactive
BuGZ,DRSC02643,1.02e5,4031,inactive
SmydA-4,DRSC19390,1.34e5,6810,inactive
Pdk,DRSC07504,2879,205,inactive
CG17270,DRSC15209,60907,3571,inactive
snu,DRSC16589,2027,840,inactive
Unc-115b + p24-2,DRSC16492,68093,3641,inactive
sa,DRSC11649,1.38e5,6588,inactive
DIP-epsilon,DRSC00932,1.39e5,5865,inactive
DIP-epsilon,DRSC02313,1.61e5,5165,inactive
Ndc1,DRSC15895,66835,3370,inactive
CG30060,DRSC05419,1.36e5,5004,inactive
sncRNA:430e + His2A:CG33859 + His2A:CG33817 + 37 more,DRSC21264,71387,4976,inactive
coro,DRSC05007,70699,3301,inactive
CG31337,DRSC12981,81702,2891,inactive
Nmt,DRSC11236,83384,3561,inactive
CG33225,DRSC03881,1.21e5,4745,inactive
CG31371,DRSC15079,1.28e5,6501,inactive
Rbp9,DRSC00416,1.39e5,4581,inactive
Rbp9,DRSC00779,95606,3404,inactive
mRpS28,DRSC06939,1.43e5,5023,inactive
Cpr97Eb,DRSC15123,1.17e5,6027,inactive
CG1317,DRSC08305,72680,3346,inactive
CG3123,DRSC00570,1.77e5,5881,inactive
Shab,DRSC08013,1.34e5,4230,inactive
Shab,DRSC08643,1.06e5,4720,inactive
Shab,DRSC08699,74856,2785,inactive
Mic26-27,DRSC15913,68553,3405,inactive
CG31998,DRSC17137,1868,940,inactive
CG31998,DRSC17138,43643,3622,inactive
cGlr1,DRSC06270,1.38e5,4985,inactive
ND-13A,DRSC03110,1.45e5,4958,inactive
Mis12,DRSC10299,1.11e5,4846,inactive
Cpr47Ee,DRSC06343,75384,3769,inactive
CG4610,DRSC04477,1.05e5,3812,inactive
CG6012,DRSC02921,1.16e5,4431,inactive
CG10147,DRSC09706,1.05e5,4044,inactive
CG4892,DRSC01937,1.08e5,3646,inactive
Pdi,DRSC11250,1.27e5,7703,inactive
CG34227,DRSC06788,86213,3962,inactive
CG34227,DRSC07034,1.07e5,4657,inactive
Hrb27C,DRSC03347,99673,3767,inactive
noc,DRSC03580,77407,3687,inactive
CG8260,DRSC20098,2.25e5,6674,inactive
